Reference: publication PMC4241993
Results are given in words; binding and its absence hold for the method and conditions named. In cells and extracts the contact can be indirect. Some binding calls cover weakened binding; strength is not graded here. Tags and fused reporters may be left off the sequences shown.

Key:
[1] = molecular target: T1, ΔC150-KIAA1199 mutant (FLAG) (human (cDNA from CaSki cells)) (UniProt Q8WUJ3); assay: co-IP; cells transfected with KIAA1199-FLAG wild type or ΔN/ΔC mutants; anti-FLAG IP (anti-HA as negative control) followed by anti-EGFR blot
T1 sequence: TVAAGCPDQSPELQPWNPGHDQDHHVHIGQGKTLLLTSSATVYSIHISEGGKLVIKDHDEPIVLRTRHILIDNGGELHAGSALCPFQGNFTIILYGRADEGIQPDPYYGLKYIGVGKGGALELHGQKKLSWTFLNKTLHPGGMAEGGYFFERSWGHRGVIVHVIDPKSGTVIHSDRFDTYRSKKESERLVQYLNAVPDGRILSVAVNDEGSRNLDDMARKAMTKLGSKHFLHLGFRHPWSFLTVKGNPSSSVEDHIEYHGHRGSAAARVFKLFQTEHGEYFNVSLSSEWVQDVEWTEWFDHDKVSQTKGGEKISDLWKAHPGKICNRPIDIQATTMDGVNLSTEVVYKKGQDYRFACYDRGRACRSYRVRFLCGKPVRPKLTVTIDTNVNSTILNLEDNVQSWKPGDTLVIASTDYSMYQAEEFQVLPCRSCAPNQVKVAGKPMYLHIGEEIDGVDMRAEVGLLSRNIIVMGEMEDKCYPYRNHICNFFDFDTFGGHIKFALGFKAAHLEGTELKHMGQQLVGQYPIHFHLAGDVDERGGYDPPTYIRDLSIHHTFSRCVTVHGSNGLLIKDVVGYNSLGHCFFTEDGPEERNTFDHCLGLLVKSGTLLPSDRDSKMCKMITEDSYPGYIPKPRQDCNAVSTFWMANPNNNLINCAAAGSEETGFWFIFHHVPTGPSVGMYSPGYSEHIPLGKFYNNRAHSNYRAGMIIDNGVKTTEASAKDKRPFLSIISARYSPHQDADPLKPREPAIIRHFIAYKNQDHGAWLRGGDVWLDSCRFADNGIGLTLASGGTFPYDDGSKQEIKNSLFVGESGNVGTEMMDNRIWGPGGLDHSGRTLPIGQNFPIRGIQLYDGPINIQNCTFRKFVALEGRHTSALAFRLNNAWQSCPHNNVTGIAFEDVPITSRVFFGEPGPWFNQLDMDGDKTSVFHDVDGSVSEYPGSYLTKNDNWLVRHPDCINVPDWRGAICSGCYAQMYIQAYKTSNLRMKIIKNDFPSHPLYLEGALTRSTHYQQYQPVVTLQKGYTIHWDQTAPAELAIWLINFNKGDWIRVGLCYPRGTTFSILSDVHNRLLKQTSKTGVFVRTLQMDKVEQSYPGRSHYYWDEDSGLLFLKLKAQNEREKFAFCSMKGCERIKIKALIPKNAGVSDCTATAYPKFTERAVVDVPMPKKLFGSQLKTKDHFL

[2] = molecular target: T2, ΔC250-KIAA1199 mutant (FLAG) (human (cDNA from CaSki cells)) (UniProt Q8WUJ3); assay: as above
T2 sequence: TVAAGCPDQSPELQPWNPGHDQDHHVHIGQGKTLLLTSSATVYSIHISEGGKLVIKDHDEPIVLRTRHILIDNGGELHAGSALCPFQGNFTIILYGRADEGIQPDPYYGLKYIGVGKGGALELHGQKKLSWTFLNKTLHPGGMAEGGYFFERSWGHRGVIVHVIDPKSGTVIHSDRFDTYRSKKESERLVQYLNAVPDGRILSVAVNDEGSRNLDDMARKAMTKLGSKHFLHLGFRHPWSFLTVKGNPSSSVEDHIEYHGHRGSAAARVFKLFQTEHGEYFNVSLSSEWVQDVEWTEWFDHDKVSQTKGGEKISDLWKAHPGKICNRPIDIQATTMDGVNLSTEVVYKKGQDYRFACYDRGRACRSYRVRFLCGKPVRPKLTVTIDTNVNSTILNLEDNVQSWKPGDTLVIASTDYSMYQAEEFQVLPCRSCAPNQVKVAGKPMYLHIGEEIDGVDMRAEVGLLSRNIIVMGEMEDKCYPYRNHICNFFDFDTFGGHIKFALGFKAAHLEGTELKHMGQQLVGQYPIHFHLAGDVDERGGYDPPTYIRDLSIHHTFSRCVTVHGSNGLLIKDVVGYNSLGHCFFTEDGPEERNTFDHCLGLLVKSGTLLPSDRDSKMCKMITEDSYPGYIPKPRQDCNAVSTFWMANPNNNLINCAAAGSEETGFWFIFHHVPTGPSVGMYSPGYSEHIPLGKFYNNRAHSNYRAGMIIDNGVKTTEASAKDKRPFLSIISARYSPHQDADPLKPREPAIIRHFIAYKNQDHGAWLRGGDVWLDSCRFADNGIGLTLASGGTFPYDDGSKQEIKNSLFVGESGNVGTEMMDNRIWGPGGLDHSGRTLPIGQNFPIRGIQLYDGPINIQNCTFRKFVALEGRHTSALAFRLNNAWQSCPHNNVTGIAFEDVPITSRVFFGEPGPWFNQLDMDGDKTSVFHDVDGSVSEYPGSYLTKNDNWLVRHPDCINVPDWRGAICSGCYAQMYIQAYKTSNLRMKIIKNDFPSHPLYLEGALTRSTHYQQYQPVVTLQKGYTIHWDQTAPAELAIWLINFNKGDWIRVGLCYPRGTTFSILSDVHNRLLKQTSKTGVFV

With “EGFR (in extracts of transfected cells, Figure 5e) (from UniProt P00533 25-1210) (receptor)” the binding [1] was “binds” and the binding [2] was “binds”.
